Measured values from doi:10.1101/2024.09.30.615753.
These are yes or no findings as the source states them, for the method shown. For part of these data: In cells and extracts the contact can be indirect. Some results given as binding are weak or reduced against the parent protein; the word gives no strength. Tags and fused reporters may be left off the sequences shown.

How the values were obtained:
[1] = biological target: T1, PRESSED FLOWER (PRS) fused to the pGBKT7 binding domain (PRS-BD) (Arabidopsis thaliana) (UniProt Q9SIB4); assay: two-hybrid
T1 sequence: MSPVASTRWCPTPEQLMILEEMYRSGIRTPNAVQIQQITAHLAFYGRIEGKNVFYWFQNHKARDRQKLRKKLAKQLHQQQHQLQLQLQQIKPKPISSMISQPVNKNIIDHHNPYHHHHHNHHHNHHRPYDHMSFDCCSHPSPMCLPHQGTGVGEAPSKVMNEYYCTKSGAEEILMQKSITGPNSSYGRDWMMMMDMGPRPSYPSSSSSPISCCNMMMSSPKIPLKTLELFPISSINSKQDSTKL

[2] = biological target: T2, PRS-cLUC (Arabidopsis thaliana) (UniProt Q9SIB4); assay: split reporter
T2 sequence: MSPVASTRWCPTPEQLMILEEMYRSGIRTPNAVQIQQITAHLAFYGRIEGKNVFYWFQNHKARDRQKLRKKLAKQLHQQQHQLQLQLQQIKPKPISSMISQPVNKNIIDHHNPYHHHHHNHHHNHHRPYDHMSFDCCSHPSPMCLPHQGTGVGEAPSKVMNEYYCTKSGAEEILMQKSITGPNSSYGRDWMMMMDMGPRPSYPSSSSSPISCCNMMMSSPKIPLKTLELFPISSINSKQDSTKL

[3] = biological target: T3, PRS-cYFP (Arabidopsis thaliana) (UniProt Q9SIB4); assay: split reporter
T3 sequence: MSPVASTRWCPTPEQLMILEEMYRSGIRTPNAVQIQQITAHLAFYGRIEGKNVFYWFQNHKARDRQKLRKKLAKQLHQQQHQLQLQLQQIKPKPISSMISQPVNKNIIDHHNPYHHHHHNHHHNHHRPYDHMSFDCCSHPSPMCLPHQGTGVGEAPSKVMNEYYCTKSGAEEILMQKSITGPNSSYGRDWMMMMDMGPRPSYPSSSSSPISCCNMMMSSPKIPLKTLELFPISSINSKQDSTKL

B1: … LEAVES 2 (AS2) fused to the pGADT7 activation domain (AS2-AD) (protein, UniProt O04479 1-199)
chain: MASSSTNSPCAACKFLRRKCQPECVFAPYFPPDQPQKFANVHKVFGASNVTKLLNELHPSQREDAVNSLAYEADMRLRDPVYGCVGVISLLQHQLRQLQIDLSCAKSELSKYQSLGILAATHQSLGINLLAGAADGTATAVRDHYHHHQFFPREQMFGGLDVPAGNNYDGGILAIGQITQFQQPRAAAGDDGRRTVDPS
Question: With B1 as the binder, how does the binding [1] read?
Answer: The binding was “binds”.

B2: AS2-nLUC (protein, UniProt O04479 1-199)
chain: MASSSTNSPCAACKFLRRKCQPECVFAPYFPPDQPQKFANVHKVFGASNVTKLLNELHPSQREDAVNSLAYEADMRLRDPVYGCVGVISLLQHQLRQLQIDLSCAKSELSKYQSLGILAATHQSLGINLLAGAADGTATAVRDHYHHHQFFPREQMFGGLDVPAGNNYDGGILAIGQITQFQQPRAAAGDDGRRTVDPS
Question: With B2 as the binder, how does the binding [2] read?
Answer: Its binding is “binds”.

B3: nYFP-AS2 (protein, UniProt O04479 1-199)
chain: MASSSTNSPCAACKFLRRKCQPECVFAPYFPPDQPQKFANVHKVFGASNVTKLLNELHPSQREDAVNSLAYEADMRLRDPVYGCVGVISLLQHQLRQLQIDLSCAKSELSKYQSLGILAATHQSLGINLLAGAADGTATAVRDHYHHHQFFPREQMFGGLDVPAGNNYDGGILAIGQITQFQQPRAAAGDDGRRTVDPS
Question: With B3 as the binder, how does the binding [3] read?
Answer: Its binding is “binds”.
